# Data reported in paper PMC9638933.
# The chains behind the UniProt entries cited, without tags or fusion partners.
# UniProt P9WNV3: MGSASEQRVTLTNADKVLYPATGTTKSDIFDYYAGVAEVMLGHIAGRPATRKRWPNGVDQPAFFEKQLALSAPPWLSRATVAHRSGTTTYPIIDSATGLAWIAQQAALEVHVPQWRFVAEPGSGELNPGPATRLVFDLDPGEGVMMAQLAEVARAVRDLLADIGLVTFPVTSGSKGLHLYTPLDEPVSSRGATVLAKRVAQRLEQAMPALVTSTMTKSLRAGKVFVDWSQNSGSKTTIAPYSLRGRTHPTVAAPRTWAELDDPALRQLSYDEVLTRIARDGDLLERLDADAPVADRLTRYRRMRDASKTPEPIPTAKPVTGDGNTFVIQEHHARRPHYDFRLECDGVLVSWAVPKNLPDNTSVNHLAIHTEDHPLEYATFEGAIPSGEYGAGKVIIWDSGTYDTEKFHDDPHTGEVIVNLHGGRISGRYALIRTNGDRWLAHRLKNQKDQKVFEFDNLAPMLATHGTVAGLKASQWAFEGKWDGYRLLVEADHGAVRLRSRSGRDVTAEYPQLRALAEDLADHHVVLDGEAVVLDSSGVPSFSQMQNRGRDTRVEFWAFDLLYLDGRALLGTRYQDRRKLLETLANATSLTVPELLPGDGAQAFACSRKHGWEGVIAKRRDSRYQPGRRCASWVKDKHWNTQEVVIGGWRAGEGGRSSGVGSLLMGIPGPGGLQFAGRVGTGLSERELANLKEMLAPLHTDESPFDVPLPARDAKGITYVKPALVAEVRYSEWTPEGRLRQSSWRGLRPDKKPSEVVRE
# Results are given in words; binding and its absence hold for the method and conditions named.
# Target: Mycobacterium tuberculosis LigD, wildtype (M. tuberculosis) (UniProt P9WNV3)
# Experiment: SEC-MALS; 50 uM protein; 50 mM HEPES pH 8.0, 1 mM EDTA, 200 mM NaCl; Superdex 200 Increase 10/300 GL; both purified
substance,measurement,value
"Mycobacterium tuberculosis LigD, wildtype (from UniProt P9WNV3 1-759) (enzyme)",binding,no binding (tested: 50 uM)
